Laboratory results reported in patent US20240262881A1.
Results are given in words; binding and its absence hold for the method and conditions named. Some results given as binding are weak or reduced against the parent protein; the word gives no strength. Tags and fused reporters may be left off the sequences shown.

How the values were obtained:
[1] = target: T1, recombinant human GDF-8 (human) (UniProt O14793); assay: MSD plate assay; capture: recombinant GDF-8 on the plate; 8x serial dilutions of the purified protein; detect: anti-Fc
T1 sequence (looked up): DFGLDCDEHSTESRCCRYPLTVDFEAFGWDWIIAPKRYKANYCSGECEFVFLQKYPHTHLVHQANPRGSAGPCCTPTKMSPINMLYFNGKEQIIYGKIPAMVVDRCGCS

[2] = target: T1, recombinant human GDF-8 (human); assay: MSD platform-based assay (figure legend)
[3] = target: T1, recombinant human GDF-8 (human); assay: MSD plate assay: GDF-8 coated, 8x serial dilutions of purified ACVR2B-Fc, detection with anti-human Fc antibody and SULFO-TAG secondary antibody

binding [1]: binds
binding [2]: binds
binding [3]: binds
B1: recombinant human ACVR2B-Fc fusion protein (Fc fusion, not shown: a dimerising Fc or GST)
chain: SGRGEAETRECIYYNANWELERTNQSGLERCEGEQDKRLHCYASWRNSSGTIELVKKGCWLDDFNCYDRQECVATEENPQVYFCCCEGNFCNERFTHLPEAGGPEVTYEPPPTAPTLLT
